The test system of one test is C. albicans Y-326. Kind of test: microbe, parasite or virus in culture. The format is cell-based. Particulars: Candida albicans, Y326, 24-h incubation, mean of 3 replicates from 2 independent experiments, read-out: Minimum Inhibitory Concentration (MIC). As to the method:
(§1) Strains were obtained from American Type Culture Collection (ATCC, Manassas, VA) or the clinical isolate collection at Trideum Biosciences (Frederick, MD, USA). Bioluminescence strains of P. aeruginosa 19660, transfected with the Xen5 luciferase gene, and S. aureus ATCC® 49525™ (Wright), transfected with the Xen36 luciferase gene, were obtained from Perkin Elmer (Hopkinton, MA).
(§2) A single colony was aseptically picked from an agar overlay and released in 25–30 mL of pre-warmed trypticase soy broth in a culture flask. Each culture was incubated overnight in a 37°C incubator. […] Pathogen growth was measured by absorbance at 600 nm. Four replicas were included for each test agent concentration. […]

The test system of a further test is C. albicans Y-6359. Kind of test: microbe, parasite or virus in culture. The test is classed as cell-based. The settings on record: Candida albicans, Y6359, 24-h incubation, mean of 3 replicates from 2 independent experiments, read-out: Minimum Inhibitory Concentration (MIC). As to the method:
as §1, §2

Where “and” joins values, the source holds several entries; their conditions need not be identical. Equal values may be shown once.

One compound from PMC6667648 (Frontiers in Microbiology, 2019) can be followed below.

Regarding `C[C@@H]1[C@H](O)[C@@H](C)/C=C/C=C/C=C/C=C/C=C/C=C/C=C/[C@H](O[C@@H]2O[C@H](C)[C@@H](O)[C@H](N)[C@@H]2O)C[C@@H]2O[C@](O)(C[C@@H](O)C[C@@H](O)[C@H](O)CC[C@@H](O)C[C@@H](O)CC(=O)O[C@H]1C)C[C@H](O)[C@H]2C(=O)O` [Amphotericin b, amphotericin B], the MIC in the test with C. albicans Y-326 was 1 µM and 1.08 µg/mL; in the test on C. albicans Y-6359 it was 1 µM and 1.08 µg/mL.
